Results reported in paper PMC5749165.
Results are given in words; binding and its absence hold for the method and conditions named. In cells and extracts the contact can be indirect. Some entries that bind do so weakly or less than the wild type.

Chains of the proteins cited; added tags and fusions are not shown. Lines headed by an entry give the natural chain unless they say otherwise; changes in a name come on top.
UniProt O94913: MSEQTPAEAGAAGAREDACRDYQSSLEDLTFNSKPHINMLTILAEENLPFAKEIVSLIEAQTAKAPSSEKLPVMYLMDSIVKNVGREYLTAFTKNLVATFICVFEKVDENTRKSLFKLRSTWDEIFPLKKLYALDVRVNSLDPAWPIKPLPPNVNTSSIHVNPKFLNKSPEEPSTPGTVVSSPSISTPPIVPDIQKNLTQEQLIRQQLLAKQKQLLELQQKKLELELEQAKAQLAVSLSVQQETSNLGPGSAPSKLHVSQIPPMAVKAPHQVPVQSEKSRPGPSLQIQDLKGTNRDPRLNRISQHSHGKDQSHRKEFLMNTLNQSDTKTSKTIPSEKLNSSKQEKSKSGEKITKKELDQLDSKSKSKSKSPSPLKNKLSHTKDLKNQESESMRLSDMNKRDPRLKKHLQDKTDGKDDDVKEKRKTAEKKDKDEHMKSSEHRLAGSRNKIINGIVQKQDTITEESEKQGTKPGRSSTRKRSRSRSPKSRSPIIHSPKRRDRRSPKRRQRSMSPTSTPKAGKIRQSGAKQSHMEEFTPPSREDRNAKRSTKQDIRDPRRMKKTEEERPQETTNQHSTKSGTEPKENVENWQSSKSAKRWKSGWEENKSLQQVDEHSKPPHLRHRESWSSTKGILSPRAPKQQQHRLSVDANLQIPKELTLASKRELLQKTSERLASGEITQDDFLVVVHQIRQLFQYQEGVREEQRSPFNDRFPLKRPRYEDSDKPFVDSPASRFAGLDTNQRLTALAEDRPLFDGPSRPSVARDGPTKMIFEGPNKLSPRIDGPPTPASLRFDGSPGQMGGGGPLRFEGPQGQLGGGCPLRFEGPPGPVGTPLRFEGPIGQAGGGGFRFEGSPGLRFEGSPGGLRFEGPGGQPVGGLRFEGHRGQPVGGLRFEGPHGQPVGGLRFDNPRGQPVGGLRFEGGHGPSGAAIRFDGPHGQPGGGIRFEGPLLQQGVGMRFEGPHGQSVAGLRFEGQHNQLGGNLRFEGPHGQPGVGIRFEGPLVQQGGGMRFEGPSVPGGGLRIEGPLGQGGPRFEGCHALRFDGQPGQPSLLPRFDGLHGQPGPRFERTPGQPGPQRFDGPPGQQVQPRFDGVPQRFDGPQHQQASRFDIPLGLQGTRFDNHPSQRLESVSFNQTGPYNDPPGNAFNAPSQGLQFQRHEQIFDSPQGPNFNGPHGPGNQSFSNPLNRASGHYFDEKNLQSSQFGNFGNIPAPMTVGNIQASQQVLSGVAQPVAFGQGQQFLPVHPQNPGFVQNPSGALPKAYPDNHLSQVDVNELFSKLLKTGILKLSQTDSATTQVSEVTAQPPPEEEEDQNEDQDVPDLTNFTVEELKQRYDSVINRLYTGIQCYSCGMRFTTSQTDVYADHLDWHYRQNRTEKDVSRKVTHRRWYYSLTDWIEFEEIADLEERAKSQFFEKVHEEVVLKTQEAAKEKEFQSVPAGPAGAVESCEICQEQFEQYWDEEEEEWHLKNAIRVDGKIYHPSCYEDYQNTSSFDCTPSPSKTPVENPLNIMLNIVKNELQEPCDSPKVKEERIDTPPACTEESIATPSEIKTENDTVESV
UniProt Q9H4A3: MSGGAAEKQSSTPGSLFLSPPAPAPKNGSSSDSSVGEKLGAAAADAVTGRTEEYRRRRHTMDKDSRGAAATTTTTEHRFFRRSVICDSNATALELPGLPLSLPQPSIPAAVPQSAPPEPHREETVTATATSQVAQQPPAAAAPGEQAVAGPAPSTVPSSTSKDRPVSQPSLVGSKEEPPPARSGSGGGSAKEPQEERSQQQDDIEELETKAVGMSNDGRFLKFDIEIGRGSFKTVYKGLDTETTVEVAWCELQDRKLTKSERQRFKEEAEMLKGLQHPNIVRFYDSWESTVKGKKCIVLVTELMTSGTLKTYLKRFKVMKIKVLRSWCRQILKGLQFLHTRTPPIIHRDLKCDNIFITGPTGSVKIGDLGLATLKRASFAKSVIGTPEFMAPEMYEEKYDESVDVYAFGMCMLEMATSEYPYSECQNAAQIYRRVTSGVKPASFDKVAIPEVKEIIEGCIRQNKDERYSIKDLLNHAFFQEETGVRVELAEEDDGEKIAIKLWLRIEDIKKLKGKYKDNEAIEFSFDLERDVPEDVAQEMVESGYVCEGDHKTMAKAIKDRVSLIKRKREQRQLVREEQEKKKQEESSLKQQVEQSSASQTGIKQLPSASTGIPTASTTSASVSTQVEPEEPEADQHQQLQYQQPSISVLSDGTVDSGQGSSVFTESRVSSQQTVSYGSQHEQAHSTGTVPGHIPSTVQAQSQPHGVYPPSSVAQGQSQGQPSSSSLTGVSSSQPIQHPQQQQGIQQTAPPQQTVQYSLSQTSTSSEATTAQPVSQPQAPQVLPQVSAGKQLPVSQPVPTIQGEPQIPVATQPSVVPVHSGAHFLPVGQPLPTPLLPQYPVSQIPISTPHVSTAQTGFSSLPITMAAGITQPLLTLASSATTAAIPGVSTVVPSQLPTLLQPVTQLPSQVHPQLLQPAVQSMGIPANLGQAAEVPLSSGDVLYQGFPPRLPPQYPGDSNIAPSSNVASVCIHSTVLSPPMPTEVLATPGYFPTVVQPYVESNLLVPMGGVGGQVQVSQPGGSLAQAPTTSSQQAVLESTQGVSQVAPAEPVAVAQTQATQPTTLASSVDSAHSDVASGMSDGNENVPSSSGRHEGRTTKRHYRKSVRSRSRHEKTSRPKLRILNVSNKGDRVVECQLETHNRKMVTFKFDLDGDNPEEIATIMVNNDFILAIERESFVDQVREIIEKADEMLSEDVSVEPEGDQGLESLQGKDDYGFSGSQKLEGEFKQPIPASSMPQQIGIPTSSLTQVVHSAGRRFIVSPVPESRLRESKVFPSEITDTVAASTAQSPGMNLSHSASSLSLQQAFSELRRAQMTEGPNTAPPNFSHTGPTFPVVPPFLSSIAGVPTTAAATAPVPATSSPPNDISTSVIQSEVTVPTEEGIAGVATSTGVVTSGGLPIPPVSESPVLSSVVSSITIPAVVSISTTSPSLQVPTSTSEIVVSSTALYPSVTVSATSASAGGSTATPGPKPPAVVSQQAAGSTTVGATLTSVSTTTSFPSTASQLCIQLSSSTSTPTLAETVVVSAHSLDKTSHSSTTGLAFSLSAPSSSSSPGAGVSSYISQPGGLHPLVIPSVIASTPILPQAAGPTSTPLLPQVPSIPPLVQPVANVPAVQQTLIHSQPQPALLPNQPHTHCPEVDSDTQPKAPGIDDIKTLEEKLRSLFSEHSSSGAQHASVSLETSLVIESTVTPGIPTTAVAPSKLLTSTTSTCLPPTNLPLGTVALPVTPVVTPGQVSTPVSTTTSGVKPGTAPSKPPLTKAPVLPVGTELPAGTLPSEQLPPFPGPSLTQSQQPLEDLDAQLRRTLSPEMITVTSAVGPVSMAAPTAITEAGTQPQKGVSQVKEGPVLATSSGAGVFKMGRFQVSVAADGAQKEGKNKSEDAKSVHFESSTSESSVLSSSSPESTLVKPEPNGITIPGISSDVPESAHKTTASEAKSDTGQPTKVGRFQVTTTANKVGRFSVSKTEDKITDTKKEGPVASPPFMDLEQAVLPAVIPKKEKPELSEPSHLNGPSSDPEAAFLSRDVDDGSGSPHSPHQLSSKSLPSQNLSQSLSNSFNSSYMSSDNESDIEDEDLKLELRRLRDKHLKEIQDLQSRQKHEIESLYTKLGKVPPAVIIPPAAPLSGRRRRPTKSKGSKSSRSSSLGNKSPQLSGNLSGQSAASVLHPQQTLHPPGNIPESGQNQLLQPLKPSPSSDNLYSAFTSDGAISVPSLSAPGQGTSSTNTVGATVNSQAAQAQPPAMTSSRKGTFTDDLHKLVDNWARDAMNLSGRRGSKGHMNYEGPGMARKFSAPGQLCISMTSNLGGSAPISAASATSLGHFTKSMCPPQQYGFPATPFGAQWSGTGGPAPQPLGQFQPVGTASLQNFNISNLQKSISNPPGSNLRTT

Key:
[1] = molecular target: PCF11 (termination factor), endogenous (human (endogenous in HeLa)) (UniProt O94913); assay: co-IP; reciprocal immunoprecipitation of endogenous PCF11 and WNK1 from HeLa nuclear extracts; 150 mM or 250 mM NaCl; 150 mM NaCl after benzonase; mock IP with rabbit IgG; Western blot
[2] = molecular target: WNK1 (with no lysine [K] 1) kinase, endogenous (human (endogenous in HeLa)) (UniProt Q9H4A3); assay: as above

| binding [1] | binding [2] | Substance |
| --- | --- | --- |
| binds weakly | – | WNK1 (with no lysine [K] 1) kinase, endogenous (from UniProt Q9H4A3-1 1-2382) (enzyme) |
| – | binds weakly | PCF11 (termination factor), endogenous (from UniProt O94913 1-1555) |
